Patent publication US11976311B2, “Method of adjusting the pH of a pretreatment solution using carbon dioxide useful for integrating saccharification and fermentation of a biomass” (National Technology & Engineering Solutions of Sandia, LLC, priority 2014, dated 2024)

Experiment: One-pot pretreatment and saccharification of switchgrass using [Ch][Lys] and CO2
Set-up: species or system Panicum virgatum
[1] = 10 wt % [Ch][Lys]-water as pretreatment medium and throughout saccharification
[2] = CO2 and [Ch][Lys] based one-pot process, after 72 h saccharification, commercial enzyme mixture

With C[N+](C)(C)CCO.NCCCC[C@H](N)C(=O)[O-] [[Ch][Lys], cholinium lysinate] the glucose yield [1] was 85%, the “xylose yield (monomer)” value [1] was 11% and the glucose yield [2] was 87%. It also gave a xylose yield [2] of 40%.
